# Results as given in PMC6325143.
# Sequences of proteins named here, by UniProt entry; tags and fusion partners are left off. Residues count along the entry.
# UniProt Q05895, residues 22-956: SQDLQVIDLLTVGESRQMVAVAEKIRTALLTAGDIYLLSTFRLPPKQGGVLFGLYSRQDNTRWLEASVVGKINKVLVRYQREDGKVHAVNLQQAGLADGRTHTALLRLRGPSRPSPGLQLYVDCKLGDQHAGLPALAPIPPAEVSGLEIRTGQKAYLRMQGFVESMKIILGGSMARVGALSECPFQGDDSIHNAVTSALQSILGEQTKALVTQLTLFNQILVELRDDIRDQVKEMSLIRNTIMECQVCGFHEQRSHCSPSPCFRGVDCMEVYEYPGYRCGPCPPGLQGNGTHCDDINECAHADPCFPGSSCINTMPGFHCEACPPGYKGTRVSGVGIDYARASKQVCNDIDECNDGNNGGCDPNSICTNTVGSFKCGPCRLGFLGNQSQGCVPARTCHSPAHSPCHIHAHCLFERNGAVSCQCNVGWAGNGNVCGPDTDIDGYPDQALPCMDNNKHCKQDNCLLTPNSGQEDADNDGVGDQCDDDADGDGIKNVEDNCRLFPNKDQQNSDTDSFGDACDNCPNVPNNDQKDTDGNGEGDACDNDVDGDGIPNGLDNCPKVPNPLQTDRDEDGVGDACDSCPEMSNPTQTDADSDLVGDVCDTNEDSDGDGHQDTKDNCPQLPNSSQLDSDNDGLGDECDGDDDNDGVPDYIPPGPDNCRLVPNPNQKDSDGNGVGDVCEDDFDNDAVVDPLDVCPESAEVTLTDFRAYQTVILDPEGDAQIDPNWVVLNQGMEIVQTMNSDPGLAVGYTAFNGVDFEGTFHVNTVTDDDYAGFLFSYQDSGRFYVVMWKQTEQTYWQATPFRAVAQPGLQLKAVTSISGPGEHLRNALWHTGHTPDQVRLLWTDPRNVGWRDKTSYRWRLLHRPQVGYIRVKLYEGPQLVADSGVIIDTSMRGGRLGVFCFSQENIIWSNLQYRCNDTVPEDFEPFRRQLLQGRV
# Results are given in words; binding and its absence hold for the method and conditions named. In cells and extracts the contact can be indirect. Some results given as binding are weak or reduced against the parent protein; the word gives no strength. Tags and fused reporters may be left off the sequences shown.
# Target: T1, ER luminal domain of activating transcription factor 6α (amino acids 448–570) with Myc tag and C-terminal KDEL retention signal (Ad-ATF6α-DN-Myc-KDEL) (UniProt P18850)
# T1 sequence: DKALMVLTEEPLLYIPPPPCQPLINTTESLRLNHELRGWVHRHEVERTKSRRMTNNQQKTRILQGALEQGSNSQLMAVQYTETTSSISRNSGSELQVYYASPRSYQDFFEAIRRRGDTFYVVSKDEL
# Assay: co-IP; NRVM co-infected with adenoviruses for Myc-tagged ATF6α and Thbs3 (or βgal control); non-denaturing lysis buffer (1% Triton X-100, 50 mM Tris-HCl pH 7.4, 150 mM NaCl); IP with anti-c-Myc antibody and Protein A/G magnetic beads; Western blot for Thbs3
substance,measurement,value
"Thrombospondin-3 (Thbs3), full-length mouse, overexpressed by adenovirus (AdThbs3) (from UniProt Q05895 22-956)",binding,binds
